Data on three substances can be found in PMC12198050.

By UniProt entry, the sequences of proteins in these tests, tags left out. Where a name states a change or a piece, a line headed by the entry shows the natural chain unless it says otherwise. Residues count along the entry.
UniProt Q9UM47, residues 40-467: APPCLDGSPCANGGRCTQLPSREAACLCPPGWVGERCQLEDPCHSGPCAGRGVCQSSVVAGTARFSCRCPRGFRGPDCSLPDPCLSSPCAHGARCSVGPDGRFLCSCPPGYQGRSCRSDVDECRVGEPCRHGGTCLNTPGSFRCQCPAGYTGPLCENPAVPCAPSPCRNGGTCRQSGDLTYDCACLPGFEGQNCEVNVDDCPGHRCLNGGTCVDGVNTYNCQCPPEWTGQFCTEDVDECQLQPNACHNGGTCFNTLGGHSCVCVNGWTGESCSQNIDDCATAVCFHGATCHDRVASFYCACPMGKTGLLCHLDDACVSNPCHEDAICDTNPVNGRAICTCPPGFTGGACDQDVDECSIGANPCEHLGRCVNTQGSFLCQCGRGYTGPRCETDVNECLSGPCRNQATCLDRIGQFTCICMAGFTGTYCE
UniProt Q61982, residues 40-2318: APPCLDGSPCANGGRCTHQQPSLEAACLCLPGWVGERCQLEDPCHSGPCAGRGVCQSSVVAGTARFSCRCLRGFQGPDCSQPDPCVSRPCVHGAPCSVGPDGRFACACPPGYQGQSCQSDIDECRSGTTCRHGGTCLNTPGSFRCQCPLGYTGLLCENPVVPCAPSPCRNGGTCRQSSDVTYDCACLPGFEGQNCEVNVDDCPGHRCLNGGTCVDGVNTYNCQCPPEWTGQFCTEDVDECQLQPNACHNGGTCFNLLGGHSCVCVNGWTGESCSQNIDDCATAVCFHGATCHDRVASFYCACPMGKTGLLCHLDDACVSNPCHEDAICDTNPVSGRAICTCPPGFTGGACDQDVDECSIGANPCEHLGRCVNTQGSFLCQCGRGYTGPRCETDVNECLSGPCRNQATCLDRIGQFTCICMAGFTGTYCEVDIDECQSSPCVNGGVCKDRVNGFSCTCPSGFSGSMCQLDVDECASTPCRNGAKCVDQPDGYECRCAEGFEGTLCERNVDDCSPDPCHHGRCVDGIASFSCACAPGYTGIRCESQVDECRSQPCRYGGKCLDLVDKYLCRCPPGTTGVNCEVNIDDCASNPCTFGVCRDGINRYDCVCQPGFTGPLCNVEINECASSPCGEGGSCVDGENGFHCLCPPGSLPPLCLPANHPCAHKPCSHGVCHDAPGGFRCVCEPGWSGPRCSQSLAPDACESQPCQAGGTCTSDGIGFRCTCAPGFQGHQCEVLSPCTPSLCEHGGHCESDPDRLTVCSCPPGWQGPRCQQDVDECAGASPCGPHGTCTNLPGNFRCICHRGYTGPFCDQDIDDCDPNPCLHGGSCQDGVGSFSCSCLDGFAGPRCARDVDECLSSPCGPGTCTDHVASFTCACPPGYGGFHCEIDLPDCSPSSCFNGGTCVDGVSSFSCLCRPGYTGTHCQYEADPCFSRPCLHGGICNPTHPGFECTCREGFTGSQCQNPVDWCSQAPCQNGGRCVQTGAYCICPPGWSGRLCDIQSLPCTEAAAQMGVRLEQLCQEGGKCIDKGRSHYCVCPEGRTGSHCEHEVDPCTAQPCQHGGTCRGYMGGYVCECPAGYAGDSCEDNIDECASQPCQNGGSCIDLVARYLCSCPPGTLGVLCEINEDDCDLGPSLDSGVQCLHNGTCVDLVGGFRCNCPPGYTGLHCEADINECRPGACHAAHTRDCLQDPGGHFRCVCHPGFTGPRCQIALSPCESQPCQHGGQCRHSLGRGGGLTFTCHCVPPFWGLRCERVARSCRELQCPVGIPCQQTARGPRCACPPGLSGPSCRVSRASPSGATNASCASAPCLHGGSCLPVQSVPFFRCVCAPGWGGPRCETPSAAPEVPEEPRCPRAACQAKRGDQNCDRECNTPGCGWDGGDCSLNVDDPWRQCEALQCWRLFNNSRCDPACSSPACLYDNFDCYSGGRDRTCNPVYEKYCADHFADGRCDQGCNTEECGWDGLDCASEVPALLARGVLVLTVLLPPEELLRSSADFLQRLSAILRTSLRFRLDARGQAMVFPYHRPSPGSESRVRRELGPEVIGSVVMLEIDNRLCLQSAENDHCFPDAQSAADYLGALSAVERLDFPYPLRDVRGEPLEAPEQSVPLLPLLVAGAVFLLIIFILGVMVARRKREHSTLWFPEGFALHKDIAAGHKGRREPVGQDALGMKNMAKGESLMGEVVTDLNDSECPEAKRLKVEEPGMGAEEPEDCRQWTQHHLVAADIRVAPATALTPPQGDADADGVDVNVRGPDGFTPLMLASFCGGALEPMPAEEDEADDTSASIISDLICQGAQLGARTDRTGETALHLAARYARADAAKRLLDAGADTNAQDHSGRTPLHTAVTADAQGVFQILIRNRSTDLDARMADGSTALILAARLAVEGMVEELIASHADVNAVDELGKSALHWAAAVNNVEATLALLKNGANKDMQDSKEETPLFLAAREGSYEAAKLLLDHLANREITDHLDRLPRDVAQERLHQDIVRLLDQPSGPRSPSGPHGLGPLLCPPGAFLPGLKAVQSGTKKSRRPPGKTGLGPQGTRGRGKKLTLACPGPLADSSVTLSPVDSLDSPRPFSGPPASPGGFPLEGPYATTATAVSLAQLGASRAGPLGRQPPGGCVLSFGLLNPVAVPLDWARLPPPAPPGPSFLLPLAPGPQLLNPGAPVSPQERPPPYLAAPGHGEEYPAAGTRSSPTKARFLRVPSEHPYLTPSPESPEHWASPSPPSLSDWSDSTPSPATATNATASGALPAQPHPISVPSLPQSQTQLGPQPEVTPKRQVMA
UniProt P67809: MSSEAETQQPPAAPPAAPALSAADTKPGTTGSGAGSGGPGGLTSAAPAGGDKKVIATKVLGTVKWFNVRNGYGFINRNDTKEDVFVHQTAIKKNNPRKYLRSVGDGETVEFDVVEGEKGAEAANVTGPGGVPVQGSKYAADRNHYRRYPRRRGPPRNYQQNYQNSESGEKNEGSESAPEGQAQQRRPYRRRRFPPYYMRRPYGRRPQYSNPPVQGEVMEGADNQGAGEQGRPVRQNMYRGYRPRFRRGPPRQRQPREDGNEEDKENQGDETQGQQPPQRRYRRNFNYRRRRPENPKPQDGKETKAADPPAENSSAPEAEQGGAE
UniProt P78504, residues 34-1067: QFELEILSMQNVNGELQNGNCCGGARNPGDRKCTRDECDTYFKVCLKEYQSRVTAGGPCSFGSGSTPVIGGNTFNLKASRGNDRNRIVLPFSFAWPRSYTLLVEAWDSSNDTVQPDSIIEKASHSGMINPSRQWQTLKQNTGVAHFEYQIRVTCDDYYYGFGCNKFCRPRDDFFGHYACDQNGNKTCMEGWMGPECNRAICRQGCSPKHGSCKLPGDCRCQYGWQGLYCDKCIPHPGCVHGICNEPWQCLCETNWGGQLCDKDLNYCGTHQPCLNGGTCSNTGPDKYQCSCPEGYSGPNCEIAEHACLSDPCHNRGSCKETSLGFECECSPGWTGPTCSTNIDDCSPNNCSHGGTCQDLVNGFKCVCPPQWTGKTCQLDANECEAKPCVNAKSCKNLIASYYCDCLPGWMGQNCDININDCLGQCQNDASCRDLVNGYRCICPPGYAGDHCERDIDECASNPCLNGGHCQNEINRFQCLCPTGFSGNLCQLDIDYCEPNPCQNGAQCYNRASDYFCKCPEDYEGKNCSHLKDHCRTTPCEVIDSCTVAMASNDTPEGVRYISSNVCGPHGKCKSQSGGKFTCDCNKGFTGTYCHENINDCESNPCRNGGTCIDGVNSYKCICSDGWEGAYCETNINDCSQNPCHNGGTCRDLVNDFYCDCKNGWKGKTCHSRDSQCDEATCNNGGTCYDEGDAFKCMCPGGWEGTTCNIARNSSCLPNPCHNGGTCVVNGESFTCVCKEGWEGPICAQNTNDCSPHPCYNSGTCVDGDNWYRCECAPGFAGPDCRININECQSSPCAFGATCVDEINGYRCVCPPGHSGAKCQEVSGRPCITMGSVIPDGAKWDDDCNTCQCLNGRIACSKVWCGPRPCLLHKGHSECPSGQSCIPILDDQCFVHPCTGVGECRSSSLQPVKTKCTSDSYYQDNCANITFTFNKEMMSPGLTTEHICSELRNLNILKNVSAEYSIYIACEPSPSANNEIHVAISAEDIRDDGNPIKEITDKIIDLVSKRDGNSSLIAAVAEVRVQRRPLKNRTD

The target in assay [1] is Notch-3-Fc-Chimera (aa40-467, EGF 1-11) (UniProt Q9UM47). Kind of assay: ELISA; solid-phase binding assay: Notch-3-Fc chimera (aa40-467) 0.5 ug/mL coated on MaxiSorp plates; biotinylated ligands 10^-7 to 10^-11 mol/L in binding buffer (50 mM Tris, 150 mM NaCl, 5 mM MnCl2, 0.1% BSA, pH 7.2), 4°C, 3 h; streptavidin-HRP, absorbance at 450 nm; both purified.
Assay [2] has as its target full-length murine Notch-3 receptor overexpressed on HEK293 cells (murine) (UniProt Q61982). In words: cell-based ligand binding assay (biotinylated ligand, streptavidin-HRP, absorbance at 450 nm); HEK293(T) cells overexpressing full-length murine Notch-3 in 24-well plates; biotinylated ligands 10^-7 to 10^-11 mol/L in binding buffer (50 mM Tris, 150 mM NaCl, 5 mM MnCl2, 0.1% BSA, pH 7.2), 4°C, 3 h; only the binder purified.

No constants are given. Whether binding was seen depends on the method and setting. Some results given as binding are weak or reduced against the parent protein; the word gives no strength.

Regarding “recombinant YB-1 (Y-box binding protein-1) (from UniProt P67809 1-324) (ligand)”, the binding result in assay [1] and in assay [2] was “binds” each time.
In the case of “in vitro guanidinylated recombinant YB-1 (YB-1-2G) (from UniProt P67809 1-324) (ligand)”, the binding result in assay [1] and in assay [2] was “binds” throughout.
Turning to “recombinant Jagged-1 (from UniProt P78504 34-1067) (ligand)”, the binding result in assay [1] and in assay [2] was “binds” each time.
